Results from US11752132B2, “Materials and methods for improving gastrointestinal function” (University of Florida Research Foundation, Incorporated, priority 2010, dated 2023).
At least one compound was matched to its structure with a doubt left.

Test system: jejunal mucosa (net anion secretion)
Assay: Ussing chamber transepithelial short circuit current (Isc) with transport blockers/forskolin
Format: cell-based, mice
Conditions: listed as Forskolin
Excerpt: To study active HCO3^− secretion, 8-week-old, non-irradiated and irradiated, male BALB/c mice were obtained from the National Cancer Institute. Mice were randomly divided into groups, and abdomens were irradiated according to the gastrointestinal acute radiation syndrome (GI ARS) model with a Shepherd Mark-I, using a ^137Cs source delivering γ-irradiation at 1.84 Gy/min. Radiation was given as a single fraction. The GI ARS model will achieve maximum radiation damage to intestinal tissues, and mimics intestinal injury during radiation therapy of pelvic or abdominal tumors.
Changes in short circuit current (Isc), both as a function of time following radiation and with increasing doses of radiation, were examined to determine the earliest time and the minimum radiation dose required to produce significant changes in Isc. […]
Following exsanguinations, jejunal segment was obtained by excluding the distal 12 cm of small intestine adjacent to the caecum. […] The mucosa was mounted between the 2 halves of an Ussing-type Lucite chamber with an area of 0.30 cm^2 (P2304, Physiologic instruments, San Diego, Calif. 92128 USA), and electrical parameters were recorded using a voltage/current clamp device (VCC MC-8, Physiologic instruments, San Diego, Calif. 92128 USA) (Vidyasagar et al. 2005; Vidyasagar et al. 2004; Zhang et al. 2007; Vidyasagar and Ramakrishna 2002). […]

SMILES: C=C[C@@]1(C)CC(=O)[C@]2(O)[C@@]3(C)[C@@H](O)CCC(C)(C)[C@@H]3[C@H](O)[C@H](OC(C)=O)[C@@]2(C)O1 [forskolin]
- forskolin-stimulated Isc in Cl^−-free solution (0 Gy): stimulated an increase in Isc
- forskolin-stimulated Isc in Cl^−-free solution (3-Gy irradiated mice): but not in 3 Gy tissues
